Experimental data reported in US20060057138A1 (published 2006).
No constants are given. Whether binding was seen depends on the method and setting. Some results given as binding are weak or reduced against the parent protein; the word gives no strength.

Sequences of proteins named here, by UniProt entry; tags and fusion partners are left off. A change or cut given only in a name is not applied to a line headed by its entry. Residues count along the entry.
UniProt P35590: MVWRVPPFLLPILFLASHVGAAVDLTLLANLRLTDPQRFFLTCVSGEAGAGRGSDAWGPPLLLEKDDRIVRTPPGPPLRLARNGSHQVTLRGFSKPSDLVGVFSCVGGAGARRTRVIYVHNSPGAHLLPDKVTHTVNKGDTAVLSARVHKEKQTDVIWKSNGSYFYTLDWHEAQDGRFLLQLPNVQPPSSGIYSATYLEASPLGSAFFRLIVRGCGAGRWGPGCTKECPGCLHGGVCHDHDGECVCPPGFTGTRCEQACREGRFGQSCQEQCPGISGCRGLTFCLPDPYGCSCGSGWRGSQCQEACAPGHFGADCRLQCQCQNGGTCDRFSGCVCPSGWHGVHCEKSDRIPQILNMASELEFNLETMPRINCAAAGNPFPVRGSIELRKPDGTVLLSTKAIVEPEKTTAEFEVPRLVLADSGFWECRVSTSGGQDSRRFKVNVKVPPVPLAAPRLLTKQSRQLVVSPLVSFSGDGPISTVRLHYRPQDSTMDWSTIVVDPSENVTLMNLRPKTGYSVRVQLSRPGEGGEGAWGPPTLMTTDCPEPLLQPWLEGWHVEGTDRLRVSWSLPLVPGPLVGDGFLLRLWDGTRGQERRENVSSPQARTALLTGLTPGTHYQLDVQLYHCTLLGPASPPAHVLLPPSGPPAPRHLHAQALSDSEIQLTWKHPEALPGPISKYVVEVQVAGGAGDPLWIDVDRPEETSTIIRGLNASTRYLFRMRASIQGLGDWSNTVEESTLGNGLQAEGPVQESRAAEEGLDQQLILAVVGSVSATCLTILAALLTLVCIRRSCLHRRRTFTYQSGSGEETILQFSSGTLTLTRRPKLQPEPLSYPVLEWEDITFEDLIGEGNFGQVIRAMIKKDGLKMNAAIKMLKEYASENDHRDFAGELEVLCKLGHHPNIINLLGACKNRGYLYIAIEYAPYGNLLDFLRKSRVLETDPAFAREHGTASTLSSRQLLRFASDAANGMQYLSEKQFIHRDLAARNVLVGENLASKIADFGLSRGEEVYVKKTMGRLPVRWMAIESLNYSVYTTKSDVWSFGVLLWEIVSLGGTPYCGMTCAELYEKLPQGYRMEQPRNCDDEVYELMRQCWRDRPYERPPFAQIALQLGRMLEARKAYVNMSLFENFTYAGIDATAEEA
UniProt Q06806, residues 23-1134: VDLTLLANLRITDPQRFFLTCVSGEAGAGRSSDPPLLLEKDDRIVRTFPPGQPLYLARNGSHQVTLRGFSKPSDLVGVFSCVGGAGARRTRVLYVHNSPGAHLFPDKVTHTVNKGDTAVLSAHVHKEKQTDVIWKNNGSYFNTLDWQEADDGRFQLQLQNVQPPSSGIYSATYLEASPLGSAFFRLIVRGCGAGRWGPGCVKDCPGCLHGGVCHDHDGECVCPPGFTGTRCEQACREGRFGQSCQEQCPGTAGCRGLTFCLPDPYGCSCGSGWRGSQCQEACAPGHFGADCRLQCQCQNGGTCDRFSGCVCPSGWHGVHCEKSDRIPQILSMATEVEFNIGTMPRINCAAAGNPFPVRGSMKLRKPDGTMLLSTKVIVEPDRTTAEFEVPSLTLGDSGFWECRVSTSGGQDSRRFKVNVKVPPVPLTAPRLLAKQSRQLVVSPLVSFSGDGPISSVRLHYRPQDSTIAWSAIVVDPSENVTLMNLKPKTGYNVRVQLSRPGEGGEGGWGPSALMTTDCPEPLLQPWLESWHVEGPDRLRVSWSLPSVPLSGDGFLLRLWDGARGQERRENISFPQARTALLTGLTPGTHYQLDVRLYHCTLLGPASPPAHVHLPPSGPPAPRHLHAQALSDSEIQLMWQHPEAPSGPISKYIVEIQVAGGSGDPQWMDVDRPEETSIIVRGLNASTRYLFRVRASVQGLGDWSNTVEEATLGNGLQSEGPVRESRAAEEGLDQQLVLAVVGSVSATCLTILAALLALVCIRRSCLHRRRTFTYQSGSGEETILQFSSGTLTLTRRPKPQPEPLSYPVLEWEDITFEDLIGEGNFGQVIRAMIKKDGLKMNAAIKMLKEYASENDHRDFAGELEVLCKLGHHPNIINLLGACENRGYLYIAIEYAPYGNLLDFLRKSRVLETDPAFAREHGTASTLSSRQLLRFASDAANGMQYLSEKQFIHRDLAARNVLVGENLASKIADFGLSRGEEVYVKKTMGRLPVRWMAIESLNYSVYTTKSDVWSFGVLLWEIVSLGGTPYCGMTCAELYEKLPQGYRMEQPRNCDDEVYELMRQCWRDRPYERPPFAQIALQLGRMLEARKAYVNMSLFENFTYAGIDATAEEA

Legend:
[1] = biological target: V5-tagged full length human Tie1 (pcDNA3-Tie1-V5) expressed in COS1 cells (human) (UniProt P35590); assay: WB, IP and IF on Tie1-V5 COS1 cells and primary endothelial cells
[2] = biological target: Tie1 (human, endogenous) (human) (UniProt P35590); assay: as above
[3] = biological target: V5-tagged full length human Tie1 (pcDNA3-Tie1-V5) expressed in COS1 cells (human) (UniProt P35590); assay: IF, COS1 cells transfected with Tie1-V5
[4] = biological target: Tie1 (human, endogenous) (human) (UniProt P35590); assay: immunohistochemistry, biotinylated IgG on frozen human tissue sections
[5] = biological target: Tie1 (human, endogenous) (human) (UniProt P35590); assay: confocal microscopy, biotinylated antibody (10 µg/ml) on fixed HUVEC
[6] = biological target: Tie1 (human, endogenous) (human) (UniProt P35590); assay: immunohistochemistry, human lung and lung carcinoma
[7] = biological target: Tie1 (human, endogenous) (human) (UniProt P35590); assay: immunoprecipitation from HUVEC lysate, Western blot with goat anti-Tie1
[8] = biological target: recombinant human Tie1-Fc (Tie1 extracellular domain fused to human Fc) (human) (UniProt P35590); assay: SPR (BIAcore), IgG coupled on CM5 chip, Tie1/Fc 12.5-200 nM as analyte
[9] = biological target: Tie1 (human, endogenous) (human) (UniProt P35590); assay: immunohistochemistry, normal human skin
[10] = biological target: Tie1 (human, endogenous) (human) (UniProt P35590); assay: immunohistochemistry, human kidney
[11] = biological target: Tie1 (human, endogenous) (human) (UniProt P35590); assay: immunohistochemistry, human breast
[12] = biological target: Tie1 (human, endogenous) (human) (UniProt P35590); assay: WB, HDMEC
[13] = biological target: V5-tagged full length human Tie1 (pcDNA3-Tie1-V5) expressed in COS1 cells (human) (UniProt P35590); assay: WB, COS1 cells transfected with Tie1-V5
[14] = biological target: Tie1 (human, endogenous) (human) (UniProt P35590); assay: IF, HDMEC
[15] = biological target: mouse Tie1 on mouse endothelial cells (mouse) (UniProt Q06806); assay: immunohistochemistry, biotinylated E3 IgG1 (a,z allotype), 10 µg/ml, on formalin-fixed SW480 xenograft sections
[16] = biological target: Tie1 (human, endogenous) (human) (UniProt P35590); assay: as above

binding [1]: binds | binding [2]: binds | binding [3]: binds | binding [4]: binds | binding [5]: binds | binding [6]: binds | binding [7]: binds | binding [8]: binds | binding [9]: binds | binding [10]: binds | binding [11]: binds | binding [12]: binds | binding [13]: binds | binding [14]: binds | binding [15]: binds | binding [16]: binds
B1: E3 IgG (parental anti-Tie1 antibody E3) (antibody, V domains shown)
VH: EVQLLESGGGLVQPGGSLRLSCAASGFTFSMYGMVWVRQAPGKGLEWVSVISPSGGNTGYADSVKGRFTISRDNSKNTLYLQVNSLRAEDTAVYYCARAPRGYSYGYYYWGQGTLVTVSS
VL: DIQMTQSPLSLSASVGDRVTITCRASQGIGHYLAWYQQKPGKVPKLLIYTASTLQSGVPSRFSGSGSGTDFTLTINSLQPEDVATYYCQQFNSYPHTFGQGTRLDIK
